For at least one entry, the source does not settle the construct or the ends of the probe. Where a protein sequence is shown, tags need not be part of it.
Biological target: T1, BnA09MYB47a ZY821 allele (GST-MYB47) (Brassica napus (black-seeded ZY821)) (UniProt A0ABQ7YCS3)
T1 sequence (looked up, limits assumed): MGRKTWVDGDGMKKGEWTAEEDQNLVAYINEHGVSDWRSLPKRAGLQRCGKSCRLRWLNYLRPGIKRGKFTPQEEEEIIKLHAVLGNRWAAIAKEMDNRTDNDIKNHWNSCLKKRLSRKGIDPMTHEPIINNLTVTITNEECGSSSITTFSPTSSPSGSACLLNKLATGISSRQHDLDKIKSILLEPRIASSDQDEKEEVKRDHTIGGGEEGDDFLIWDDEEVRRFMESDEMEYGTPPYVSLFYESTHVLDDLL
Assay: EMSA
Settings: EMSA: LightShift Chemiluminescent kit, room temperature 20 min, native 6% acrylamide gel; salt and pH not stated; recombinant protein; protein details: GST (pGEX4T-1)

Sequence: CTTCTTCACACATTAACTAACTACCGGTAGTTATGCACTT (double strand) [BnTT18 promoter probe 1]
- binding result: binds
